Experimental data taken from patent US8604004B2, “Moenomycin analogs, methods of synthesis, and uses thereof” (President and Fellows of Harvard College, priority 2007, dated 2013).
At least one compound was matched to its structure with a doubt left.

Legend:
E. faecalis PBP2a = biological target: T1, E. faecalis PBP2a (Enterococcus faecalis, UniProt Q837Z4); assay: IC50 for transglycosylase inhibition, E. faecalis PBP2a, [14C]-GlcNAc-labeled lipid II analogue; type: biochemical; details: comparison in words
T1 sequence (Q837Z4 1-728): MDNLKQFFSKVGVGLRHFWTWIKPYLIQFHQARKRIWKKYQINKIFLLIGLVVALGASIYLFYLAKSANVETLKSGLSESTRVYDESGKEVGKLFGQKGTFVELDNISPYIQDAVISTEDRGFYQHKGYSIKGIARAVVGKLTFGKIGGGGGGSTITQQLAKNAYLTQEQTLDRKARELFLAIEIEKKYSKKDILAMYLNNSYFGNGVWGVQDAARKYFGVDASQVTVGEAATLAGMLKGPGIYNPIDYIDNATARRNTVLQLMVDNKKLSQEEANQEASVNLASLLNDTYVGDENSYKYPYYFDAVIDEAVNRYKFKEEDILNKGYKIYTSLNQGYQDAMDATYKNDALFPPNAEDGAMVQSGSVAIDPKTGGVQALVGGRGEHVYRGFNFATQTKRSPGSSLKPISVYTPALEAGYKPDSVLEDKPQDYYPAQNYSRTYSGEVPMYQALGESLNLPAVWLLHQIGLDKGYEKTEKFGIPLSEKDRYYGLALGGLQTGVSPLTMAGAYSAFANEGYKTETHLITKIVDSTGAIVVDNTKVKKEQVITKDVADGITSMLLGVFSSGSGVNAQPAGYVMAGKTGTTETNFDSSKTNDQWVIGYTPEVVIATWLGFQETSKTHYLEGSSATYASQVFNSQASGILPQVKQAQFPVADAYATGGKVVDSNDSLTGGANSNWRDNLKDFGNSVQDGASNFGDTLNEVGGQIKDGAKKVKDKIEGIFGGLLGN
Description: The pbp2a gene was PCR-amplified from E. faecalis (CL4877) purified genomic DNA using the following primer pair: 5′-[…] AATCTTAAACAATTTTTT-3′ (SEQ ID NO: 1) and 5′[…]-3′ (SEQ ID NO: 2). The first primer introduced a NdeI restriction site (underlined), and the second primer introduced a XhoI site into the PCR product. The PCR product was subcloned into pET42 (Novagen) for expression in E. coli BL21(DE3) (Novagen) as a C-terminal His8 fusion. PBP2a was expressed after induction of a log phase culture grown at 37° C. with 1 mM IPTG and grown at 15° C. for an additional 20 h. The cells were harvested by centrifugation, and the cell pellets were resuspended in buffer A (20 mM Tris-HCl, 150 mM NaCl, pH 7.4) supplemented with 360 kU of rLysozyme (Novagen). The cells were lysed using a French pressure cell at 16,000 psi in buffer A. Freely soluble proteins were decanted and the pellet resuspended in buffer A containing 0.5% Sarkosyl to release membrane-anchored PBP2a. […] Fractions were analyzed by 12% SDS-PAGE, pooled and concentrated using a Amicon Ultra Centrifuga Filter Device (50K MW cutoff). […]
IC50 Values for PBP2a. […] Products and starting material were separated using chromatography (isobutryic acid:1 N NH4OH=5:3) and quantitated by scintillation counting. […]

bacteria = details: recently shown, earlier report; cited from earlier work

For CC(=O)NC1[C@H](O[C@@H]2C(CO[C@@H]3OC(CO)[C@@H](O)[C@H](O)C3O)O[C@@H](OC3[C@@H](OP(=O)(O)OC[C@@H](OC/C=C(/C)CCC=C(C)C)C(=O)O)OC(C(N)=O)[C@@](C)(O)[C@@H]3OC(N)=O)C(NC(C)=O)[C@H]2O)OC(C)[C@@H](O[C@@H]2OC(C(=O)NC3=C(O)CCC3=O)[C@H](O)[C@H](O)C2O)[C@@H]1O (some centres unmarked) [compound 15], the “inhibitory activity against TGase from E. faecalis relative to moenomycin A” value (E. faecalis PBP2a) is given as “comparable to that of moenomycin A” and the biological activity (bacteria) is given as “biologically inactive”.
